# Assay: Fused silica open tube catheter infusion into hydrogel (tissue surrogate)
# Details: for penetration distance where the fluorescence intensity was 25% of I0: 1 μA, 40 min, hydrogel −24.7 mV zeta-potential, mean±SEM; for penetration distance where the fluorescence intensity was 25% of I0 / distance where 25% of I0 occurred: N=5; for distance where 25% of I0 occurred: ~50 μm tip, 40 minutes of infusion
smiles,measurement,setting,value
"[Ru+2].c1ccc(-c2ccccn2)nc1.c1ccc(-c2ccccn2)nc1.c1ccc(-c2ccccn2)nc1 [Ru(bpy)3^2+, tris(2,2′-bipyridyl)ruthenium(II)]",ratio of penetration distance at 25% of I0 by electrokinetic transport to maximum distance by diffusion alone (steady state),0.5 μA current,14
same,ratio of penetration distance at 25% of I0 by electrokinetic transport to maximum distance by diffusion alone (steady state),1.5 μA current,17
same,penetration distance where the fluorescence intensity was 25% of I0,50 μm diameter catheter tip,"1,489±27 μm"
same,penetration distance where the fluorescence intensity was 25% of I0,100 μm diameter catheter tip,"4,516±96 μm"
same,distance where 25% of I0 occurred,0.5 μA,"1,342±67 μm"
same,distance where 25% of I0 occurred,1.5 μA,"1,682±36 μm"
